The supplement of paper PMC3334620
In all, about 33,000 sequences were measured (“E-score (-0.5 to 0.5)”: median about -8e-05, highest 2% from about 0.23 on). The list shows a part of the results.

Target: T1, Nrg2 (UniProt P38082)
T1 sequence: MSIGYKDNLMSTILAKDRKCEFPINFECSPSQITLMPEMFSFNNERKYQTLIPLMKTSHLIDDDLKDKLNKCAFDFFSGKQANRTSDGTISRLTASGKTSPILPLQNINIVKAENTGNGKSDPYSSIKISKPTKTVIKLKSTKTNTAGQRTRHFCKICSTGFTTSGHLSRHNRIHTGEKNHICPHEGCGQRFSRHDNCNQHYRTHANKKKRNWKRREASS
Assay: PBM E-score (8-mer binding enrichment) (E-score (-0.5 to 0.5)); higher = stronger / more preferred TF binding
Conditions: protein concentration: 100 nM; construct: GST-full length
How it was run: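 Detection of bound protein used fluorescent anti-GST, with scans normalised by masliner. The proteins were GST-tagged yeast transcription factors applied at about 100-200 nM to universal all-10-mer Agilent arrays made double-stranded by primer extension. Each ungapped eight-base word, pooled with its reverse complement, was scored with an E-score from the Universal PBM Analysis Suite.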

Compared with CTAGTGCA, AGTCAACT is lower in “PBM E-score” value: 0.108 for the first, -0.198 for the second.

Compared with CAATCGGC, ACAAATTC is higher in “PBM E-score” value: -0.00335 for the first, 0.134 for the second.

Compared with CCTGACAG, GCCGCACC is lower in “PBM E-score” value: 0.159 for the first, 0.108 for the second.

Going from TGTGCCAA to GCCAAACA, the “PBM E-score” value falls from 0.135 to 0.0821.

First: CAGTATTC
Second: CCAAGCTC
The “PBM E-score” value of the first is lower: -0.00222 for the first, 0.195 for the second.

First: CACAATAA
Second: AAGGCTGT
The “PBM E-score” value of the first is higher: -0.0701 for the first, -0.167 for the second.

Compared with AGGGCCTC, CGCGGTAA is higher in “PBM E-score” value: -0.0367 for the first, 0.0932 for the second.

First: GACCCTAC
Second: GGTCGAAA
The “PBM E-score” value of the first is higher: 0.184 for the first, 0.00719 for the second.

First: ATAGCGAT
Second: GGTACTCA
The “PBM E-score” value of the first is lower: -0.0278 for the first, 0.0143 for the second.

Compared with TATCACAA, CTTTTGTC is higher in “PBM E-score” value: 0.0943 for the first, 0.117 for the second.

Going from CTGCCGTA to GCACCATA, the “PBM E-score” value rises from -0.174 to -0.061.

Going from GGTTCGTA to CCCTTCAC, the “PBM E-score” value falls from 0.03 to -0.0285.

First: ACAGCCTC
Second: CATTTTAG
The “PBM E-score” value of the first is lower: -0.213 for the first, 0.175 for the second.

Going from CGCTCCAC to TCTTTACA, the “PBM E-score” value rises from -0.159 to 0.165.

Compared with ATGGCATG, AGCTAAAA is lower in “PBM E-score” value: 0.15 for the first, 0.0331 for the second.

Going from ATTCGAAG to TAGAGCAA, the “PBM E-score” value falls from 0.114 to -0.00591.

First: GTCGGCGA
Second: TGATCGAA
The “PBM E-score” value of the first is lower: -0.0926 for the first, -0.0377 for the second.

Compared with CAGCTCAG, CCTGTCCC is lower in “PBM E-score” value: 0.0343 for the first, -0.0853 for the second.

Compared with ATATTTCC, AATGGTGT is lower in “PBM E-score” value: 0.206 for the first, -0.0177 for the second.

First: TATGCCGA
Second: GATTAAAC
The “PBM E-score” value of the first is higher: 0.0452 for the first, -0.0289 for the second.

First: ATGTCGTA
Second: AGAACCTG
The “PBM E-score” value of the first is lower: 0.0108 for the first, 0.0774 for the second.

Compared with CGTGTCCA, TAACGATA is higher in “PBM E-score” value: -0.147 for the first, 0.117 for the second.

First: AGGGACTC
Second: AGGGCGGA
The “PBM E-score” value of the first is lower: -0.0325 for the first, -0.0311 for the second.

Going from ACCAAGTG to GTGTTTTA, the “PBM E-score” value rises from -0.0903 to 0.0827.

Going from CCTCCGGA to AACGAGGT, the “PBM E-score” value rises from -0.175 to 0.00605.

Going from ATTAACCA to AACACCAG, the “PBM E-score” value falls from -0.0464 to -0.124.

First: CCGAGCAG
Second: TTTCAAAA
The “PBM E-score” value of the first is lower: -0.0988 for the first, 0.0859 for the second.

Compared with AACTGGTA, TAGGGGGA is lower in “PBM E-score” value: 0.0325 for the first, -0.296 for the second.

Going from GTTCCGAA to AGTACACT, the “PBM E-score” value falls from 0.175 to -0.0585.

First: TCAGCAGA
Second: CTATATTC
The “PBM E-score” value of the first is lower: -0.116 for the first, 0.0669 for the second.

Compared with ACGAGGCT, CTAATGGA is lower in “PBM E-score” value: 0.0831 for the first, 0.0461 for the second.

Compared with CCCCGATC, GGGCATGA is higher in “PBM E-score” value: -0.216 for the first, -0.0401 for the second.

Going from GTCCCTCA to CGGTCTCA, the “PBM E-score” value falls from 0.0343 to -0.194.

Compared with GTCAAGCA, AGTTAAAT is higher in “PBM E-score” value: -0.238 for the first, -0.224 for the second.

Going from ATTCAACC to AGTCGCTG, the “PBM E-score” value falls from 0.0776 to -0.0881.

Going from TAAGTGGA to CCGGAAGC, the “PBM E-score” value falls from 0.106 to 0.0951.

Compared with ATCTCCAA, ACAGTAAG is lower in “PBM E-score” value: 0.178 for the first, 0.0264 for the second.

Going from AAGTGAGA to CGCTCGTA, the “PBM E-score” value falls from 0.0612 to -0.0308.

Compared with TAACTGCA, CTACAATA is lower in “PBM E-score” value: 0.157 for the first, 0.00041 for the second.

First: TAGCGGGA
Second: GCTACAAC
The “PBM E-score” value of the first is lower: -0.117 for the first, 0.0838 for the second.

First: TCGATGAA
Second: ATCATCAA
The “PBM E-score” value of the first is lower: -0.0359 for the first, 0.0652 for the second.

Compared with ATTCTCTC, GAGACGAA is lower in “PBM E-score” value: 0.057 for the first, -0.0342 for the second.

First: CGAGACCC
Second: CGTGTTCC
The “PBM E-score” value of the first is higher: 0.263 for the first, 0.0481 for the second.

First: CTTCGTTC
Second: GCGTCTCC
The “PBM E-score” value of the first is lower: -0.00176 for the first, 0.00935 for the second.

Compared with CTTTCTCA, GAAAAAAC is lower in “PBM E-score” value: 0.192 for the first, -0.0117 for the second.

Going from ATAATGAT to CTTGATGC, the “PBM E-score” value falls from 0.164 to -0.0811.

Compared with AGATGGAG, AGGTGCCA is higher in “PBM E-score” value: -0.0699 for the first, 0.0824 for the second.

First: GAGTAGGC
Second: CACCTGGC
The “PBM E-score” value of the first is higher: -0.0622 for the first, -0.115 for the second.

Going from GCGGTAGC to ATACGGTA, the “PBM E-score” value rises from -0.00411 to 0.0621.

Compared with ATACCACA, TCGGCAGA is lower in “PBM E-score” value: 0.0969 for the first, -0.00029 for the second.

Going from ACCCAACC to AAGAACTT, the “PBM E-score” value rises from -0.0481 to 0.0138.

Going from CCAATCTC to ACCTAACC, the “PBM E-score” value rises from 0.0106 to 0.0428.

Going from ATGGTATG to CCAAATAA, the “PBM E-score” value rises from -0.172 to 0.107.

First: GTATCTTA
Second: AAATCAAG
The “PBM E-score” value of the first is higher: 0.197 for the first, 0.148 for the second.

Compared with ACATGACA, ACCGCTTC is lower in “PBM E-score” value: 0.083 for the first, -0.313 for the second.

Going from CCAGGTGA to AGGGGGAC, the “PBM E-score” value falls from -0.144 to -0.188.

Going from CCGATCAC to CTAGGGCC, the “PBM E-score” value falls from 0.0723 to -0.0883.

Compared with TAAACCGA, CGTGGGGA is higher in “PBM E-score” value: -0.0871 for the first, 0.121 for the second.

Going from AGCCCTGC to GTTCGTCA, the “PBM E-score” value falls from 0.0274 to -0.066.

First: AGGGCCAT
Second: AACGGCTT
The “PBM E-score” value of the first is higher: -0.0266 for the first, -0.127 for the second.

First: GCAGGTGA
Second: CTCATGTC
The “PBM E-score” value of the first is lower: -0.0209 for the first, -0.016 for the second.

Going from AGCCATGG to AGCCTTCC, the “PBM E-score” value falls from -0.122 to -0.339.

First: ATCGGTTC
Second: TACGGCTA
The “PBM E-score” value of the first is higher: -0.01 for the first, -0.104 for the second.

Compared with CAGATGAG, GGGGCCAA is lower in “PBM E-score” value: 0.117 for the first, -0.0212 for the second.

First: AGAGCTGG
Second: GGAGCCCA
The “PBM E-score” value of the first is higher: -0.112 for the first, -0.154 for the second.

First: GACTGTAA
Second: GCCTTTGA
The “PBM E-score” value of the first is higher: 0.013 for the first, -0.0625 for the second.

Compared with ACTTAGGA, GTAGTTAA is higher in “PBM E-score” value: -0.17 for the first, 0.127 for the second.

Going from CCGCTAAG to CGGGCCCG, the “PBM E-score” value rises from -0.0186 to 0.123.

Compared with AGCTCCGA, CAGGCCAC is lower in “PBM E-score” value: 0.022 for the first, -0.141 for the second.

Compared with AGTAGATG, CAGACGCG is lower in “PBM E-score” value: 0.0108 for the first, -0.0888 for the second.

Going from AGGGGTAC to CTATTCAA, the “PBM E-score” value falls from 0.142 to 0.0974.

Going from GTGACACA to GGGAGTAA, the “PBM E-score” value falls from 0.117 to 0.0514.

First: ACCGGGAA
Second: AGCACGCG
The “PBM E-score” value of the first is higher: 0.0186 for the first, -0.042 for the second.

Going from ACTCATTG to AGCTTGGC, the “PBM E-score” value falls from -0.0157 to -0.157.

Compared with GTAGCCCA, GCAGGGGA is higher in “PBM E-score” value: -0.198 for the first, -0.192 for the second.

Going from CGGAACGC to AGCCTGGC, the “PBM E-score” value falls from -0.0791 to -0.197.

First: CCGGAGTC
Second: GCTATAGA
The “PBM E-score” value of the first is lower: -0.227 for the first, -0.153 for the second.

Going from CGGACCTC to CGCTTGGC, the “PBM E-score” value falls from -0.0835 to -0.191.

Going from CGAGACTA to GATGCGGC, the “PBM E-score” value falls from 0.00381 to -0.094.

Compared with AGTTTAAC, AGTAGACC is higher in “PBM E-score” value: -0.0855 for the first, 0.047 for the second.

Compared with CTGCCTGC, CACCCCTA is higher in “PBM E-score” value: -0.275 for the first, 0.0524 for the second.

First: CACCGCCG
Second: CAATATGA
The “PBM E-score” value of the first is lower: -0.0483 for the first, 0.0437 for the second.

First: ATACCCTA
Second: CGTTGCAA
The “PBM E-score” value of the first is higher: 0.119 for the first, 0.0314 for the second.

Compared with AATCTCTA, GCTAAGAC is lower in “PBM E-score” value: 0.228 for the first, -0.0363 for the second.

Going from CCGTTGGC to ATAAACGC, the “PBM E-score” value falls from -0.0235 to -0.0764.

First: CAAGCTCG
Second: CTGTATCC
The “PBM E-score” value of the first is higher: 0.0858 for the first, 0.0513 for the second.
